## Percent effect of library compounds

Amino acid sequences for entries named in this document (tags omitted). Residues count along the entry.
UniProt Q8IDJ8, 1-583: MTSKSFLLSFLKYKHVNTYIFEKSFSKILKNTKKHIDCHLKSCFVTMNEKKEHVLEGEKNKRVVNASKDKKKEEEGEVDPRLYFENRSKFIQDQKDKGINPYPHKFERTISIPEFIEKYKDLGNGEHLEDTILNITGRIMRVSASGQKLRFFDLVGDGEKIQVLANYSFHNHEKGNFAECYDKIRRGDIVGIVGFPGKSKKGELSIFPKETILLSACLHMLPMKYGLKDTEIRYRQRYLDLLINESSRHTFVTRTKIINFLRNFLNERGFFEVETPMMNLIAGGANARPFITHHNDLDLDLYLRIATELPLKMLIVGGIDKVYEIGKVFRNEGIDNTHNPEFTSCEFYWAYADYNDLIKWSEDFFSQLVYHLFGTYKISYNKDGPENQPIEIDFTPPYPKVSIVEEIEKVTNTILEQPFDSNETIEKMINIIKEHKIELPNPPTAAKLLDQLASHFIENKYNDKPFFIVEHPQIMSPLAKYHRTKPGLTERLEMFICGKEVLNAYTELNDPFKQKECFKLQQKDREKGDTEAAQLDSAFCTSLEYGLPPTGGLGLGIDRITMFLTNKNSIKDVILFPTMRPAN

Measurements from “University of Dundee, Small-Polar-MMV Screening Library” (2021), ChEMBL document CHEMBL3988442.

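Lysine-tRNA ligase, Plasmodium falciparum 3D7 (UniProt Q8IDJ8). Enzyme assay of the cytosolic lysyl-tRNA synthetase in 384-well plates, read by luminescence. Compounds at 30 µM. Higher reads as stronger inhibition, judged from the few compounds that gave an IC50. Size under these conditions: about 69,000 compounds, about 49 of them at 50% or above in at least one test.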

The filed quantity is “Percent Effect” (%).
The controls that fix the scale are not given in the record; negative values are as filed.
Compounds were drawn at random from those tested, without regard to their results.

With CNc1nc(C)c(C(=O)N2CCC(C(O)Cc3ccccc3)CC2)s1 (stereo not drawn) the screen gave 3.446%.
With O=C(NCc1ccc2c(c1)CCCO2)C1CNCCO1 (stereo not drawn) the screen gave 5.66%.
With COCCNC(=O)c1ccoc1CN1c2ccccc2CC1C (stereo not drawn) the screen gave 5.975%.
With Cc1cc(CNCc2c(C)n(CC(C)C)c3ccccc23)[nH]n1 the screen gave 6.576%.
With CCN(Cc1ccc(C(C)=O)cc1)CC1CCOCC1 the screen gave -2.15%.
With CN(CC1Cc2ccccc2CN1C)C(=O)CSc1nccn1C (stereo not drawn) the screen gave 4.486%.
With O=C(c1ccsc1)N1C[C@H](N2CCOCC2)[C@@H]2OCCC[C@@H]21 the screen gave 1.027%.
With CC(Cn1ccnc1)NCc1cc(Br)c2c(c1)OCO2 (stereo not drawn) the screen gave 1.176%.
With CC(O)c1cccc(N2CCC3(CCC(=O)N(C4CCCC4)C3)CC2)n1 (stereo not drawn) the screen gave -1.988%.
With CCn1c(CC2CCN(S(=O)(=O)c3cccc(C)c3)CC2)nn(C)c1=O the screen gave -1.148%.
With CCN(Cc1nc2c(cnn2C)c(=O)[nH]1)c1cc(C)ccc1C the screen gave -1.046%.
With O=C1CC(c2ccncc2)C2(CCN(Cc3cccnc3)CC2)N1 (stereo not drawn) the screen gave 1.878%.
With O=C(COc1ccc(F)cc1)N1CCCSCC1CN1CCOCC1 (stereo not drawn) the screen gave 1.55%.
With O=C1[C@@H]2CCN(Cc3ccoc3)C[C@@H]2OCCN1Cc1cccnc1 the screen gave 1.037%.
With Cc1cc2n(n1)CC(CNC1CCN(Cc3ccccc3C)CC1)CN2 (stereo not drawn) the screen gave 5.746%.
With c1n[nH]cc1CCCN1CCC(OC2CCCCC2)CC1 the screen gave 0.8565%.
With O=C(c1cc(COc2ccc3c(c2)OCO3)[nH]n1)N1CCCO1 the screen gave 3.508%.
With CC(Cn1ccnc1)NC(=O)N(C)Cc1ccc2c(c1)OCO2 (stereo not drawn) the screen gave 2.91%.
With Cn1cccc1CN1CCc2c(nc(-c3ccccn3)[nH]c2=O)C1 the screen gave 1.83%.
With CN1CCOC(CNC(=O)CCCOc2cccc(F)c2)C1 (stereo not drawn) the screen gave 0.1941%.
With Cc1ccc(OCC(O)CN2CCc3c(ncn3C3CC3)C2)cc1 (stereo not drawn) the screen gave -0.006707%.
With Cc1ccsc1CCNC(=O)CCC(=O)NC1CCCC1 the screen gave 4.977%.
With Cc1cc(C)nc(CCNC(=O)C(c2ccc(F)cc2)N(C)C)n1 (stereo not drawn) the screen gave -12.43%.
With Cn1cc(C2CCCN2C(=O)c2cnc(-c3ncccn3)s2)cn1 (stereo not drawn) the screen gave 2.417%.
With CCOc1ccc(NC(=O)NCc2csc(NC)n2)cc1C the screen gave 1.37%.
With CCCn1ccnc1CN1C[C@@H](CN2CCCCC2)[C@@H](CO)C1 the screen gave 4.391%.
With CCN1CCC2(C=C(C(=O)N(C)C)c3ccccc32)CC1 the screen gave 4.825%.
With O=C(CCn1cccn1)NCCOc1ccc2c(c1)OCO2 the screen gave 4.793%.
With CN(Cc1nnn(CC2CCC2)n1)C(=O)c1ccccc1 the screen gave 2.584%.
With CNC(=O)[C@@H]1C[C@@H](NC(=O)c2cn(C)nc2C)CN1Cc1sccc1C the screen gave 1.744%.
With COCc1noc(-c2nn(-c3ccc(F)cc3)c3c2CCC3)n1 the screen gave -0.3497%.
With Cc1cc(C)nc(N2CCC(NCCSc3nnnn3C)CC2)n1 the screen gave 6.105%.
With CN1CCN(Cc2nc3ccccc3[nH]2)[C@H]2CS(=O)(=O)C[C@H]21 the screen gave 8.369%.
With CCC(=O)N1CCN(C(=O)Nc2cccc(F)c2)[C@H]2CS(=O)(=O)C[C@H]21 the screen gave -0.4271%.
With CN(C)S(=O)(=O)N1CC[C@]2(O)CCN(c3nccs3)C[C@@H]2C1 the screen gave 6.763%.
With Cc1ccc(C)c(CC(=O)Nc2cnccc2SCCCO)c1 the screen gave 4.506%.
With O=C(NCCCn1cncn1)c1ccc(-c2ccco2)[nH]c1=O the screen gave 1.395%.
With O=C(CCc1cccs1)N1CCc2[nH]nc(COc3ccccc3)c2C1 the screen gave -2.667%.

Some entries from above, unchanged:

SMILES	effect
CCCn1ccnc1CN1C[C@@H](CN2CCCCC2)[C@@H](CO)C1	4.391
CNc1nc(C)c(C(=O)N2CCC(C(O)Cc3ccccc3)CC2)s1 (stereo not drawn)	3.446